## Assay results

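Plate-reader measure of the Venus reporter marking one vaccinia stage in infected cells (the cell line is not named here); read time unknown.
The test concentration is not given here.
Percent change in Venus reporter signal; lower (more negative) values mean stronger inhibition of that viral stage.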

Values are in %.
How 0% and 100% were set is not given here.
Common to all entries: measured here: Venus reporter, other viral stage.
Part of the compounds only, not a random draw; the main read-out is not listed here.

SMILES	activity change (Venus) (%)
CCCC#Cc1ccc2c(c1)O[C@H](CN(C)Cc1ccncc1)[C@@H](C)CN([C@@H](C)CO)S2(=O)=O	-29.2
COc1ccccc1NC(=O)N1C[C@@H]2N[C@H](C1)C2c1ccc(-c2ccc(C#N)cc2)cc1 (stereo partly drawn)	-59.42
C[C@@H]1CCCCO[C@@H](CN(C)Cc2ccc(Cl)c(Cl)c2)[C@H](C)CN([C@@H](C)CO)C(=O)c2cc(NC(=O)c3ccccc3)ccc2O1	-44.25
C[C@H]1CN([C@@H](C)CO)C(=O)Cc2cc(NC(=O)Nc3ccc(F)cc3)ccc2O[C@H]1CN(C)Cc1ccc(Oc2ccccc2)cc1	-30.94
C[C@@H]1CN([C@@H](C)CO)C(=O)c2cc(/C=C/c3ccccc3)cnc2O[C@@H]1CN(C)C(=O)Nc1ccc(C(F)(F)F)cc1	-66.86
CC(C)CC#Cc1ccc2c(c1)O[C@@H](CN(C)CC1CC1)[C@@H](C)CN([C@@H](C)CO)S2(=O)=O	-46.71
COc1ccc(S(=O)(=O)Nc2ccc3c(c2)C(=O)N([C@H](C)CO)C[C@@H](C)[C@H](CN(C)Cc2ccc(Cl)c(Cl)c2)O3)cc1	-27.54
C[C@@H]1CN([C@@H](C)CO)C(=O)c2c(c3ccccc3n2C)-c2ccccc2CO[C@@H]1CN(C)Cc1ccc2c(c1)OCO2	-64.84
C[C@@H]1CN([C@H](C)CO)C(=O)c2cccc(NC(=O)c3ccncc3)c2O[C@H]1CN(C)Cc1ccc(Cl)c(Cl)c1	-53.13
Cc1ccccc1S(=O)(=O)N1C[C@H](O)COC[C@@H]2O[C@H](CC(=O)N3CCC(Cc4ccccc4)CC3)CC[C@H]21	-34.15
CN(C)C(=O)[C@]1(Cc2ccccc2CN=[N+]=[N-])N=C(c2ccc(OCCCO)cc2)O[C@@H]1c1ccccc1	-29.6
O=C(C[C@H]1C[C@H]2c3cc(NS(=O)(=O)c4ccc(F)cc4)ccc3O[C@H]2[C@H](CO)O1)NCc1ccc(-c2ccccc2)cc1	-39.57
C[C@@H]1CN([C@H](C)CO)C(=O)Cc2cc(NC(=O)c3ccncc3)ccc2O[C@@H]1CN(C)Cc1ccc(Cl)c(Cl)c1	-47.24
Fc1cccc(CN2[C@@H]3CNC[C@H]2C3c2ccc(-c3cccc(F)c3)cc2)c1 (stereo partly drawn)	-26
CO[C@@H]1CN(C)C(=O)c2ccc(NC(=O)Nc3cc(Cl)cc(Cl)c3)cc2OC[C@H](C)NC[C@H]1C	-70.41
C/C=C/c1ccc2c(c1)O[C@H](CN(C)Cc1ccccc1)[C@@H](C)CN([C@H](C)CO)S2(=O)=O	-44.17
CC(=O)N(C)C[C@@H]1Oc2cc(C#CC3CCCC3)ccc2S(=O)(=O)N([C@@H](C)CO)C[C@@H]1C	-32.82
COc1ccccc1NC(=O)N1CC(=O)N2[C@H](C1)[C@H](c1ccc(C#Cc3ccccc3)cc1)[C@@H]2CO	-66.18
CCC(=O)Nc1ccc2c(c1)OC[C@@H](C)N(C(=O)C1CC1)C[C@@H](C)[C@H](OC)CN(C)C2=O	-8.598
C[C@@H]1CN([C@@H](C)CO)S(=O)(=O)c2ccc(C#Cc3ccncc3)cc2O[C@@H]1CN(C)S(=O)(=O)c1ccc(F)cc1	-31.64
C[C@H](CO)N1C[C@H](C)[C@H](CN(C)Cc2cccnc2)Oc2cc(C3=CCCCC3)ccc2S1(=O)=O	-38
C[C@@H]1CN([C@H](C)CO)C(=O)c2cc(NC(=O)C3CC3)ccc2O[C@@H]1CN(C)Cc1ccc(Cl)c(Cl)c1	-26.51
C[C@H]1CN([C@@H](C)CO)S(=O)(=O)c2ccc(-c3cccc(C(=O)N(C)C)c3)cc2O[C@@H]1CN(C)Cc1ccc2c(c1)OCO2	-30.52
Cc1ccc(S(=O)(=O)N(C)C[C@@H]2Oc3cc(Br)ccc3S(=O)(=O)N([C@H](C)CO)C[C@@H]2C)cc1	-34.28
COc1ccc(-c2ccc([C@@H]3[C@H](C#N)N(C(=O)c4cccc(F)c4)[C@H]3CO)cc2)cc1	-27.66
C[C@@H]1CN([C@@H](C)CO)C(=O)c2cc(NC(=O)Nc3ccc(C(F)(F)F)cc3)ccc2O[C@@H](C)CCCCO[C@@H]1CN(C)Cc1ccc2c(c1)OCO2	-32.45
COc1cccc(S(=O)(=O)N(C)C[C@H]2OCc3ccccc3-c3ccccc3C(=O)N([C@H](C)CO)C[C@@H]2C)c1	-28.47
C[C@H]1CCCCO[C@H](CN(C)C(=O)Nc2ccccc2)[C@@H](C)CN([C@@H](C)CO)C(=O)c2cc(NC(=O)c3ccccc3)ccc2O1	-30.37
C[C@@H]1CN([C@H](C)CO)S(=O)(=O)c2ccc(C#CC3CCCCC3)cc2O[C@@H]1CN(C)Cc1cccnc1	-69.27
N#C[C@H]1[C@H](c2ccc(C3=CCCCC3)cc2)[C@H](CO)N1C(=O)NC1CCCCC1	-33.02

For reference, 3 entries once more:

| SMILES | activity change (Venus) (%) |
|---|---|
| `C[C@@H]1CN([C@@H](C)CO)C(=O)c2cc(NC(=O)Nc3ccc(C(F)(F)F)cc3)ccc2O[C@@H](C)CCCCO[C@@H]1CN(C)Cc1ccc2c(c1)OCO2` | -32.45 |
| `C[C@@H]1CN([C@@H](C)CO)C(=O)c2cc(/C=C/c3ccccc3)cnc2O[C@@H]1CN(C)C(=O)Nc1ccc(C(F)(F)F)cc1` | -66.86 |
| `C[C@@H]1CN([C@H](C)CO)S(=O)(=O)c2ccc(C#CC3CCCCC3)cc2O[C@@H]1CN(C)Cc1cccnc1` | -69.27 |

Source: PubChem BioAssay AID1053133 (Broad Institute, 2014).